For one substance, binding results are on record in paper PMC9974998.

Protein sequences, listed by entry. Tags and fused reporters are not part of them.
UniProt Q15172: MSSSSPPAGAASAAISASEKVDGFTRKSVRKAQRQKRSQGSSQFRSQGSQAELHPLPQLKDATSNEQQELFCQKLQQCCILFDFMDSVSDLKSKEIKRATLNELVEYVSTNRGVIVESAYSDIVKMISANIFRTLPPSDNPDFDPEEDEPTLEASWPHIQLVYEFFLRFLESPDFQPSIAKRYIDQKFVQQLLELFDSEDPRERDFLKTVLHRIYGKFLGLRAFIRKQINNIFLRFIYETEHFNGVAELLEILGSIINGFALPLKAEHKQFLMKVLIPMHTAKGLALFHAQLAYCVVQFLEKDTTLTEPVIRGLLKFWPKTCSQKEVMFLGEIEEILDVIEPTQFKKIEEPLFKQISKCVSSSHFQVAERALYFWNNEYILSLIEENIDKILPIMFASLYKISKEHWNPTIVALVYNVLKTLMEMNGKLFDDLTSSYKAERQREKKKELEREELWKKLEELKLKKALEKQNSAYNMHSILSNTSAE
UniProt Q76MZ3: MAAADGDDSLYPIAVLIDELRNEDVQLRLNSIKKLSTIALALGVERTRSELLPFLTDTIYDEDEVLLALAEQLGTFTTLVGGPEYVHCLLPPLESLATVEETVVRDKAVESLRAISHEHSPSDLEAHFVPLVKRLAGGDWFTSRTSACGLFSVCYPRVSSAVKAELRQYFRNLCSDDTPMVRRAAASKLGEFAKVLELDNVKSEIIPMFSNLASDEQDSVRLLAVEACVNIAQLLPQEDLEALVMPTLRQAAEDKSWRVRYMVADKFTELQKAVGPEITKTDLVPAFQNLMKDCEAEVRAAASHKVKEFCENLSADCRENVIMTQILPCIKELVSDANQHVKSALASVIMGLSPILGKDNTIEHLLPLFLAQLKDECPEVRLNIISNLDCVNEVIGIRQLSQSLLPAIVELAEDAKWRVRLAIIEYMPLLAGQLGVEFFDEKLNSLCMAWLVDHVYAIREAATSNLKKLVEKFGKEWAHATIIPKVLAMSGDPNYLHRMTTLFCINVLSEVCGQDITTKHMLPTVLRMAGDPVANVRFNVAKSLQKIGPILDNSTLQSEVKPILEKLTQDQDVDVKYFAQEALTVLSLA

No constants are given. Whether binding was seen depends on the method and setting. In cells and extracts the contact can be indirect. These calls come from enrichment with a bait or labelling near it, and not all partners need be listed.

This experiment addresses YFP-B56α WT (human) (UniProt Q15172). Briefly: affinity purification with mass spectrometry; NIH3T3 stably expressing CIP2A(1-905)V5 or empty vector, transfected with YFP-B56α; GFP-Trap, washes up to 300 mM NaCl, on-bead trypsin, LC-MS/MS; three replicates each.

With “endogenous A-subunit (PPP2R1A) of NIH3T3 cells (from UniProt Q76MZ3 1-589)”, the binding entry is listed as “binds”.
